No constants are given. Whether binding was seen depends on the method and setting. Some binding calls cover weakened binding; strength is not graded here.

By UniProt entry, the sequences of proteins in these tests, tags left out.
UniProt P22147: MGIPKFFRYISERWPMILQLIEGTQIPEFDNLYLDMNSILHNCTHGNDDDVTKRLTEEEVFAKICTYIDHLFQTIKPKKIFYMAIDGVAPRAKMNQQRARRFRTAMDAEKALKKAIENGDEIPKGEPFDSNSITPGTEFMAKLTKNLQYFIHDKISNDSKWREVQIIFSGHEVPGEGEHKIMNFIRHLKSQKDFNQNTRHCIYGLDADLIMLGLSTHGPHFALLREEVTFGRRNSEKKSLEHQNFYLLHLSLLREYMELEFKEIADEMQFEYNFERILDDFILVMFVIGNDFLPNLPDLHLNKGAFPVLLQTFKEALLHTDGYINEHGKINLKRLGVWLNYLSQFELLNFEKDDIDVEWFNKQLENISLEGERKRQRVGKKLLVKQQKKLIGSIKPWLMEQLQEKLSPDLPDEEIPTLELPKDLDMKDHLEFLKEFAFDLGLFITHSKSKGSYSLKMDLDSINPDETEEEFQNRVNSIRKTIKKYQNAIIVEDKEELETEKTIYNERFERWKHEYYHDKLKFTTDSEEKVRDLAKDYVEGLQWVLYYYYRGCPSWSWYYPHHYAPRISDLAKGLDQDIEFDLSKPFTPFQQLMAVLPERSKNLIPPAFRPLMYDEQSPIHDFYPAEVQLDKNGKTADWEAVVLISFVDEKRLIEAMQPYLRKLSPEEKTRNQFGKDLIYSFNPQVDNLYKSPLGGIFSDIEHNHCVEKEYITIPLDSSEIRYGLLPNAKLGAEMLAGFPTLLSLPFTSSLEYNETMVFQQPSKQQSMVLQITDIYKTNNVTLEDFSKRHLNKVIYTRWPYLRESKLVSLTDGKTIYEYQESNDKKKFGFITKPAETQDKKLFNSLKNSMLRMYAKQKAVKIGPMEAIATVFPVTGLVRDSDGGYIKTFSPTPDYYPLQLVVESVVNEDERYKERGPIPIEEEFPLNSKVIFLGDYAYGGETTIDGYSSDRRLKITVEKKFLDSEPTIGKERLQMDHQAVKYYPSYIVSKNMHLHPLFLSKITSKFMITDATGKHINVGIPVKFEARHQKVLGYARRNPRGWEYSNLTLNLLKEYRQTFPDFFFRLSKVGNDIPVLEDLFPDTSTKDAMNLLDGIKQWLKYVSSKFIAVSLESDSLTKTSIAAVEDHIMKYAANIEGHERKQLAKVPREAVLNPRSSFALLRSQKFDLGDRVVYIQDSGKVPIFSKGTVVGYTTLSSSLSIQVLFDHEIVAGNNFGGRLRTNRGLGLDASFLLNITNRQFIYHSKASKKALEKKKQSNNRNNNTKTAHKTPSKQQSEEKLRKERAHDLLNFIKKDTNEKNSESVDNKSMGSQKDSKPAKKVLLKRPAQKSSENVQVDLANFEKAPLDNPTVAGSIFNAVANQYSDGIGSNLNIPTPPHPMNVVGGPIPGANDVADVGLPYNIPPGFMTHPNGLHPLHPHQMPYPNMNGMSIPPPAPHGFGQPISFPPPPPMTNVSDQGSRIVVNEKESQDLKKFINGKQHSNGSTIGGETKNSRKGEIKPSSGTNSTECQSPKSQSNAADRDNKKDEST

The text below walks through data of paper PMC9170289.

Assay in all cases: two-hybrid; GAL4(DB) fusion and GAL4(AD) fusion cotransformed into the wild-type tester strain GGY1::171; X-Gal colony colour on SSX plates, 30°C; pairs said to be unaffected were also tested in upf1Δ, pat1Δ, scd6Δ, edc3Δ or dcp2-N245 derivatives
In experiment [1] the target is T1, Dcp2 fragment ND315 (S. cerevisiae) (UniProt P53550).
T1 sequence: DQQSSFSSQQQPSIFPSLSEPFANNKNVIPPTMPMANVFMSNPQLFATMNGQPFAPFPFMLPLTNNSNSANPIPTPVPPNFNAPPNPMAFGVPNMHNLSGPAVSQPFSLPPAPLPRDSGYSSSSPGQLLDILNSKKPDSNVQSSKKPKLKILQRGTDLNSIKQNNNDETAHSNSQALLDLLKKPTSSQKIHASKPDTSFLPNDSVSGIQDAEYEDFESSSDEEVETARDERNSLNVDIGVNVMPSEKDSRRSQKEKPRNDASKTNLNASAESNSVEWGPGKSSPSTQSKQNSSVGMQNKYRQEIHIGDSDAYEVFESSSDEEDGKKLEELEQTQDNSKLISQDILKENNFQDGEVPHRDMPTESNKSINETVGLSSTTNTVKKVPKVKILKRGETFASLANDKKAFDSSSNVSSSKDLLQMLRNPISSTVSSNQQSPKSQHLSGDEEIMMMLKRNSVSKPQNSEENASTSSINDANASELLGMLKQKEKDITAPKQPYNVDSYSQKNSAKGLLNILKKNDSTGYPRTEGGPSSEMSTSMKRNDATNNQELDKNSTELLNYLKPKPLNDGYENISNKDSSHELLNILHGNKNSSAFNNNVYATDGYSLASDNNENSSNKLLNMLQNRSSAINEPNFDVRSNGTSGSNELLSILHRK

For experiment [2], the target named is T2, Dcp2, wild-type full length (S. cerevisiae) (UniProt P53550).
T2 sequence: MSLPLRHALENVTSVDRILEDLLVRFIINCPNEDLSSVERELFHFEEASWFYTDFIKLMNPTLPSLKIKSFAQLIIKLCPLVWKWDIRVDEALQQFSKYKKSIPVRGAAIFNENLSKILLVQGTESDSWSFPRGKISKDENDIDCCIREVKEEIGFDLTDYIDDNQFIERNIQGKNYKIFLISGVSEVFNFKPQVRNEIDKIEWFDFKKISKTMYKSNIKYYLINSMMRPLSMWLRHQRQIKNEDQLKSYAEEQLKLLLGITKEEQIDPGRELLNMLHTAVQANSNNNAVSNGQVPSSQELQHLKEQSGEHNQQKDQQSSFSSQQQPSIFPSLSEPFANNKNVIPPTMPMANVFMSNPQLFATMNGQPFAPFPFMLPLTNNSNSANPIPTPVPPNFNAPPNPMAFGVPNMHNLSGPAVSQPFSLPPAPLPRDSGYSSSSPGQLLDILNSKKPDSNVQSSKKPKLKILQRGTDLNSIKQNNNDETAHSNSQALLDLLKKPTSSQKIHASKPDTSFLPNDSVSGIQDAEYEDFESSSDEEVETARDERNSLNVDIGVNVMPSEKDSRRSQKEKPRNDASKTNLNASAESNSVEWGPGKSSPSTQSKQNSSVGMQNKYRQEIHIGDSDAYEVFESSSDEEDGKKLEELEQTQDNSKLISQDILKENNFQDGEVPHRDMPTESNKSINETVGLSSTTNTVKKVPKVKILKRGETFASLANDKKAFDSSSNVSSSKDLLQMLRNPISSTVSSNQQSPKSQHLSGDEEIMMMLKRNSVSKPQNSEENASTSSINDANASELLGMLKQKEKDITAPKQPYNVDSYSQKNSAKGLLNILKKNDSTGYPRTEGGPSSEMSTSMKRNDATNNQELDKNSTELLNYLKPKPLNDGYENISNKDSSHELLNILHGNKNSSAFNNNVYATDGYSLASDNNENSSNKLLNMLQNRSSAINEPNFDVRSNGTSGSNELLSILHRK

A further experiment concerns the target T3, Pat1 (S. cerevisiae) (UniProt P25644).
T3 sequence: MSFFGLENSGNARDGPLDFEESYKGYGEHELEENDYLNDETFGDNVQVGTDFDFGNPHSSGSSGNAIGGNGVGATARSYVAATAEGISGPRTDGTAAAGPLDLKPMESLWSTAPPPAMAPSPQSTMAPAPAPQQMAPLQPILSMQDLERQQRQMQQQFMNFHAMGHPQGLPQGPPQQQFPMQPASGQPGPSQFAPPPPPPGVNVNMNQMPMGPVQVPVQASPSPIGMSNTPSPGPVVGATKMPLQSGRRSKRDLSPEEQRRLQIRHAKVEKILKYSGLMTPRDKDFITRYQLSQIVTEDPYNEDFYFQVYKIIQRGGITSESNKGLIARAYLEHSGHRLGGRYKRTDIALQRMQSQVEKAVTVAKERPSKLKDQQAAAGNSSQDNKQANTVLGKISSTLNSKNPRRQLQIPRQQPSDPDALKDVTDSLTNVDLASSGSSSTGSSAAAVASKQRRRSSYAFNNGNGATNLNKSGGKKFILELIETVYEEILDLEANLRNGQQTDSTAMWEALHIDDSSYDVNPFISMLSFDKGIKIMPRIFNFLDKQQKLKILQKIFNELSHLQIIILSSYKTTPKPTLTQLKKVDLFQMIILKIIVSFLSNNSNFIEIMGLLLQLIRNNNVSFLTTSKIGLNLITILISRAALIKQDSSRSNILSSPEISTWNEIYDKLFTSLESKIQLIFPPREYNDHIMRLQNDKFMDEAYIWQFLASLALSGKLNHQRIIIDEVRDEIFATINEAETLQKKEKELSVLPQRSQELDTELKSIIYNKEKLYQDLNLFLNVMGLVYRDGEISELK

In the case of Xrn1 (from UniProt P22147 1-1528), the values for the binding entry (in experiment [1]; in experiment [2]; with Pat1 (S. cerevisiae)) were “binds weakly”, “no binding” and “binds”, respectively.
